Consider two molecules from article PMC3635858.

The chains behind the UniProt entries cited, without tags or fusion partners.
UniProt Q62083: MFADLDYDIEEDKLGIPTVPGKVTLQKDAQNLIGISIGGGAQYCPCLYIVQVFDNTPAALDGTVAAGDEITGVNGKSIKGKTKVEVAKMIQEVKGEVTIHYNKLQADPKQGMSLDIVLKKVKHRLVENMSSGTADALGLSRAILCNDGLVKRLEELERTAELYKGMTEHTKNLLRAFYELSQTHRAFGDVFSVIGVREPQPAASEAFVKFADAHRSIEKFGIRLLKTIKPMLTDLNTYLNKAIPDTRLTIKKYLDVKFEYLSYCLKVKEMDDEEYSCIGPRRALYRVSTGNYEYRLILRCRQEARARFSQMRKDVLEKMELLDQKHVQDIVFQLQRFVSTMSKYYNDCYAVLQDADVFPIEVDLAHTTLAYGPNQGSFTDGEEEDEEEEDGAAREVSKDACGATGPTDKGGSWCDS

These are yes or no findings as the source states them, for the method shown. Binding seen in cells or lysates may run through a third protein. Some binding calls cover weakened binding; strength is not graded here.

Experiment [1] addresses T1, ICA69 (Islet Cell Autoantigen 69 kD) (mouse (endogenous in isolated islets)) (UniProt P97411).
T1 sequence: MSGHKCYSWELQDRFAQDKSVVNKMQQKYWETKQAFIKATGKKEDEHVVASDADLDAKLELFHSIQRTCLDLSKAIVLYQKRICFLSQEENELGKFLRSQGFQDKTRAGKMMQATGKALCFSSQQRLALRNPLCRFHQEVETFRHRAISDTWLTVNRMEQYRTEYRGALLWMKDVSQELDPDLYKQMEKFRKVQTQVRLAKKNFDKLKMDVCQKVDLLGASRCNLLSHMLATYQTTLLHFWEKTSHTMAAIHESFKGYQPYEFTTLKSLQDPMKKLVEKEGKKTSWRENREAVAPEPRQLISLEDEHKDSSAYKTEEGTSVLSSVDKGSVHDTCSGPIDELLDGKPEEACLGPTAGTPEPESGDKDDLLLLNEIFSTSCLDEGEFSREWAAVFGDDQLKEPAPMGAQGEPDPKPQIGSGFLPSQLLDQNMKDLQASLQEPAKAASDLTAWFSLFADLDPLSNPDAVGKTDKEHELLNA
In words: co-IP; in vivo co-IP from about 100 isolated islets solubilised in 1% Triton X-100 with protease inhibitors; anti-PICK1 or anti-ICA69 sera on Protein A Sepharose, 2-3 h at 4°C; Western blotting; peptide-block controls. (In western blotting, separated proteins are transferred to a membrane and probed.)

For experiment [2], the target named is PICK1 (protein interacting with C-kinase 1) (mouse (endogenous in isolated islets)) (UniProt Q62083). The experiment is described as above.

“PICK1 (protein interacting with C-kinase 1) (from UniProt Q62083 1-416)”: the binding entry in experiment [1] is “binds”.

B1: ICA69 (Islet Cell Autoantigen 69 kD) (protein, UniProt P97411 1-478)
chain: T1 sequence
Take B1: the binding entry in experiment [2] is listed as “binds”.
